“And” between values parts separate entries of the source, which are not always exact repeats. Equal values may be shown once. The list shows a part of the results. These are further read-outs of the screen, such as a control signal, another cell line or another target. No call is given for them. Most of these compounds were active or inconclusive in the main read-out, so they are no random draw. Words in brackets tell the shape of the fitted curve; partial curves, single points and poor fits give uncertain potencies.
Assay: qHTS Assay for Modulators of Lamin A Splicing
Details: HeLa LMNA splicing GFP/RFP minigene ratio, 48 h
Summary of the method: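 S3 HeLa cells stably expressing lamin A-EGFP splicing minigene plus DsRed2, 600 cells/well, 48 h compound exposure at 37C. Laser-scanning cytometry; analysed as GFP (500-530 nm)/RFP (575-640 nm) total intensity ratio; 0.5% DMSO vehicle.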

[1] = measured here: RFP viability control channel
[2] = measured here: GFP splicing reporter channel

Structure (SMILES)	AC50 [1]	AC50 [2]
CCOc1ccccc1-n1c(O)c(C=NCc2ccc3c(c2)OCO3)c(=O)[nH]c1=O	0.00562 µM [falling, full curve, poor fit]	–
CCOC(=O)c1c(-n2c(C)cc(C=C3C(=O)NC(=S)NC3=O)c2C)sc2c1CCCC2	–	20 µM [falling, single point]
COc1cc(C2c3cc4c(cc3C(OC(C)=O)[C@H]3COC(=O)C23)OCO4)cc(OC)c1OC (some centres undefined)	891 nM [falling, full curve] and 56.2 nM [falling, full curve]	794 nM [falling, full curve] and 112 nM [falling, full curve]
O=Cc1cn(CCCOc2ccccc2)c2ccccc12	35.5 µM [rising, single point]	12.6 µM [rising, partial curve, poor fit]
O=c1c(/C=N/N2CCOCC2)c(O)n(-c2ccccc2)c(=S)n1-c1ccccc1	0.00316 µM [rising, full curve, poor fit]	–
CO[C@H]1CC=C2CCN3CCC4=C(CC(=O)OC4)[C@]23C1	–	0.0251 µM [rising, full curve, poor fit]
c1ccc2sc(NC3=NCCN3)nc2c1	35.5 µM [rising, single point]	–
NS(=O)(=O)c1ccc(N=Cc2c(O)n(C3CCCCC3)c(=O)n(C3CCCCC3)c2=O)cc1	35.5 µM [falling, partial curve]	22.4 µM [falling, partial curve]
CCN1C(=O)/C(=C/c2ccc(N(CC)CC)cc2OC)C(=O)NC1=S	17.8 µM [rising, partial curve]	–
C[C@]12CCC(=O)C=C1CC[C@@H]1[C@@H]2C(=O)C[C@]2(C)C(=O)CC[C@@H]12	–	12.6 µM [falling, partial curve, poor fit]
COc1cc(C=C(C#N)C#N)cc(O)c1O	–	35.5 µM [falling, single point]
Cc1ccc(C)c(NS(=O)(=O)c2ccc(OCC(=O)NCc3cccnc3)cc2)c1	7.08 µM [rising, full curve, poor fit]	–
CN(C)C(=O)C(CCN1CCC(O)(c2ccc(Cl)cc2)CC1)(c1ccccc1)c1ccccc1	11.2 µM [falling, partial curve] and 17.8 µM [rising, partial curve] and 3.55 µM [rising, full curve, poor fit]	–
CC(C)[C@@]1(NC(=O)[C@@H]2C[C@@H]3c4cccc5[nH]cc(c45)C[C@H]3N(C)C2)O[C@@]2(O)C3CCCN3C(=O)[C@H](Cc3ccccc3)N2C1=O (some centres undefined)	6.31 µM [falling, full curve, poor fit]	6.31 µM [falling, full curve, poor fit]
C/C=C1/CC(C)C(C)(O)C(=O)OCC2CCN3CCC(OC1=O)C23 (centres undefined)	–	0.141 µM [rising, full curve, poor fit]
COP(=O)(OC)c1nc(-c2cccc3ccccc23)oc1NCCc1ccccc1	11.2 µM [rising, single point]	–
CCOC(=O)C1(CCCc2ccccc2)CCN(C2CCCC2)CC1	11.2 µM [rising, partial curve]	–
CCOC(=O)c1nsnc1NCCCl	0.0631 µM [rising, full curve, poor fit]	–
Cc1ccccc1N1C(=O)NC(=O)/C(=C\c2cnn(-c3ccccc3)c2)C1=O	17.8 µM [rising, single point]	–
C[C@@H]1O[C@H](O[C@@H]2C=C3CC[C@H]4[C@@H](CC[C@]5(C)[C@@H](c6ccc(=O)oc6)CC[C@]45O)[C@@]3(C)CC2)[C@@H](O)[C@H](O)[C@@H]1O	0.0355 µM [falling, full curve]	0.0631 µM [falling, full curve]
Cc1ccc(S(=O)(=O)N2CCCCC2)cc1NC(=O)CN1CC=C(c2ccccc2)CC1	15.8 µM [rising, partial curve]	3.55 µM [rising, partial curve]
CC(=O)c1c(C)n(CCCOC(C)C)c2ccc(O)cc12	35.5 µM [rising, single point]	17.8 µM [rising, single point]
Nc1ccncc1	0.891 µM [rising, full curve]	–
CC/C(=N\Nc1ccccc1)c1c(O)n(C)c(=O)n(C)c1=O	25.1 µM [rising, single point]	14.1 µM [rising, single point]
Cc1ccc(N2C(=O)NC(=O)/C(=C\C=C\c3ccco3)C2=O)cc1C	25.1 µM [falling, single point]	35.5 µM [falling, single point]

Structure (SMILES)	AC50 [1]	AC50 [2]
Cc1ccc(OP(=O)(NCc2ccccc2)Oc2ccc(C)cc2)cc1	31.6 µM [rising, single point]	35.5 µM [rising, single point]
O=Cc1cn(Cc2ccc(F)cc2Cl)c2ccccc12	2.82 µM [rising, full curve]	–
CC(=O)O[C@H]1C[C@@H]2CCC3C(CC[C@@]4(C)[C@H]3C[C@H]([N+]3(C)CCCCC3)[C@@H]4OC(C)=O)[C@@]2(C)C[C@@H]1[N+]1(C)CCCCC1 (some centres undefined)	0.141 µM [rising, full curve, poor fit]	–
CCC(=NCCOc1ccc(Cl)cc1)c1c(O)n(C)c(=O)n(C)c1=O	4.47 µM [rising, full curve]	5.62 µM [rising, full curve]
COc1cc(C2c3cc4c(cc3C(O)[C@H]3COC(=O)C23)OCO4)cc(OC)c1OC (some centres undefined)	0.0891 µM [falling, full curve]	0.0708 µM [falling, full curve]
Cc1cc(C)cc(N2C(=O)NC(=O)/C(=C\c3cccn3-c3ccccc3)C2=O)c1	35.5 µM [falling, single point]	20 µM [falling, partial curve]
C=CCn1c(O)c(C(CC)=NCCc2ccccc2)c(=O)[nH]c1=O	8.91 µM [rising, partial curve, poor fit]	–
CC(=O)c1ccc2c(c1)N(CCCN(C)C)c1ccccc1S2	5.62 µM [falling, single point]	5.62 µM [falling, partial curve, poor fit]
O=C(O)CCCc1ccc(N(CCCl)CCCl)cc1	14.1 µM [falling, single point] and 7.08 µM [rising, partial curve, poor fit] and 25.1 µM [rising, partial curve]	10 µM [falling, partial curve] and 15.8 µM [falling, partial curve]
COc1ccc(Cn2c(N)c(C(=O)NCc3ccco3)c3nc4ccccc4nc32)cc1	–	15.8 µM [falling, partial curve]
Cc1nn(Cc2ccc(Cl)cc2Cl)c(Cl)c1C(=O)NC1CCCc2ccccc21 (centres undefined)	0.0794 µM [falling, full curve, poor fit]	–
c1ccc2c(c1)OC[C@@H](C1=NCCN1)O2	7.94 µM [falling, single point]	6.31 µM [falling, partial curve]
O=c1[nH]c(=S)n(C2CC2)c(O)c1/C=N/N1CCOCC1	–	0.158 µM [rising, full curve, poor fit]
NCC(O)c1cc(O)c(O)cc1F (centres undefined)	–	15.8 µM [rising, partial curve]
CCN(CC)c1ccc(NC(=O)c2cccc(C)c2)cc1S(=O)(=O)Nc1ccccc1OC	8.91 µM [rising, partial curve]	–
Cc1ccc2c(c1)C1CN(C)CCC1N2C(=O)COc1ccc(N(C)C(=O)C(C)(C)C)cc1 (centres undefined)	0.0112 µM [falling, full curve, poor fit]	–
COC(=O)[C@]1(C)CC[C@@]2(C)CC[C@@]3(C)C4=CCc5c(cc(O)c(O)c5C)[C@]4(C)CC[C@@]3(C)C2C1 (some centres undefined)	5.62 µM [falling, full curve]	6.31 µM [falling, full curve]
O=C(CCNS(=O)(=O)c1ccccc1)Nc1ccc(Cl)cc1C(=O)c1ccccc1	20 µM [rising, partial curve, poor fit]	–
C[C@H](CCC(=O)O)[C@H]1CC[C@@H]2[C@H]3[C@@H](CC[C@@]21C)[C@]1(C)CC[C@H](O)C[C@@H]1C[C@@H]3O	11.2 µM [rising, single point]	–
C=CCN1CCc2cccc3c2C1Cc1ccc(O)c(O)c1-3 (centres undefined)	15.8 µM [falling, partial curve]	5.62 µM [falling, full curve, poor fit]
O=[As]O[As]=O (centres undefined)	7.08 µM [rising, full curve, poor fit]	7.94 µM [rising, partial curve, poor fit]
Cn1c(O)c(C(=NCCN2CCCCC2)c2ccccc2Cl)c(=O)n(C)c1=O	35.5 µM [rising, single point]	14.1 µM [rising, single point]
CC(C)CCNC(=O)Cn1c(=O)oc2cc(S(=O)(=O)N3CCc4ccccc43)ccc21	5.01 µM [rising, partial curve, poor fit]	–
C[N+]1(C)[C@@H]2CC[C@H]1CC(OC(=O)[C@@H](CO)c1ccccc1)C2 (some centres undefined)	–	0.00112 µM [falling, full curve, poor fit]

3 neighbouring entries out of the list so far:
Structure (SMILES)	AC50 [1]	AC50 [2]
O=Cc1cn(Cc2ccc(F)cc2Cl)c2ccccc12	2.82 µM [rising, full curve]	–
CC(=O)O[C@H]1C[C@@H]2CCC3C(CC[C@@]4(C)[C@H]3C[C@H]([N+]3(C)CCCCC3)[C@@H]4OC(C)=O)[C@@]2(C)C[C@@H]1[N+]1(C)CCCCC1 (some centres undefined)	0.141 µM [rising, full curve, poor fit]	–
CCC(=NCCOc1ccc(Cl)cc1)c1c(O)n(C)c(=O)n(C)c1=O	4.47 µM [rising, full curve]	5.62 µM [rising, full curve]

From PubChem BioAssay AID1487 (National Center for Advancing Translational Sciences (NCATS), 2009)
